According to paper PMC7780726:
Where two headings read alike, the source gives them in different places. These are yes or no findings as the source states them, for the method shown. In cells and extracts the contact can be indirect. A yes stands for co-enrichment or nearness to the bait. Other partners may have been found.

By UniProt entry, the sequences of proteins in these tests, tags left out. Where a name states a change or a piece, a line headed by the entry shows the natural chain unless it says otherwise.
UniProt O77430: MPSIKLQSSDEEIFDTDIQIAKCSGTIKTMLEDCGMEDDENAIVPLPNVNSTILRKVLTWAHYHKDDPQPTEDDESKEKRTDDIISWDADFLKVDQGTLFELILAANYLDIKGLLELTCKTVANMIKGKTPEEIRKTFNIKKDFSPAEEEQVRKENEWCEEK
UniProt Q5BHY0: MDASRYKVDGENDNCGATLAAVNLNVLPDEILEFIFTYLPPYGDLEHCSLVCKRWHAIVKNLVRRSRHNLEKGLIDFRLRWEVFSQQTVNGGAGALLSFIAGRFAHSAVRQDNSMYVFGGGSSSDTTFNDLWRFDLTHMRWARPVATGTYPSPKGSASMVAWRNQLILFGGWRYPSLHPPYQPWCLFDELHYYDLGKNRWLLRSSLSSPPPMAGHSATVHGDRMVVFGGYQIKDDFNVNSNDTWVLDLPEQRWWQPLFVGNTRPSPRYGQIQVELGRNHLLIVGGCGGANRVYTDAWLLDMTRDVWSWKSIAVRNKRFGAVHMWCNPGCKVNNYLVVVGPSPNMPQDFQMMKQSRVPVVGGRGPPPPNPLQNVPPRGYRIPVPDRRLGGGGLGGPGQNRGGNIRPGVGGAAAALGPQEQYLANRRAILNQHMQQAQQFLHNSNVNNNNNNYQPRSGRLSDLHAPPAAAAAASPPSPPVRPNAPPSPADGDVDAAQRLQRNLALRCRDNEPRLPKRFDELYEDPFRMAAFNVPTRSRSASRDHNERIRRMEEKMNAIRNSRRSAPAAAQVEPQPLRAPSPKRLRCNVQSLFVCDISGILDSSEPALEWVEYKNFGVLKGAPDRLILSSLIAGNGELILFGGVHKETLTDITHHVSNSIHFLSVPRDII
UniProt P92177: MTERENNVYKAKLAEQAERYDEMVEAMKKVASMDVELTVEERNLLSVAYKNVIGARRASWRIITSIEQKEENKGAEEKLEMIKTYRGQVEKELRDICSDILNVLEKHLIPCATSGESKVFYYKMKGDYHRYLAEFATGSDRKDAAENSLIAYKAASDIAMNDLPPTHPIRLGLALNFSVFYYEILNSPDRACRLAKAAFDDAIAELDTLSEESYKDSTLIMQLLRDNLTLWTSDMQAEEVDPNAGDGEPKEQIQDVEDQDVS
UniProt P23696: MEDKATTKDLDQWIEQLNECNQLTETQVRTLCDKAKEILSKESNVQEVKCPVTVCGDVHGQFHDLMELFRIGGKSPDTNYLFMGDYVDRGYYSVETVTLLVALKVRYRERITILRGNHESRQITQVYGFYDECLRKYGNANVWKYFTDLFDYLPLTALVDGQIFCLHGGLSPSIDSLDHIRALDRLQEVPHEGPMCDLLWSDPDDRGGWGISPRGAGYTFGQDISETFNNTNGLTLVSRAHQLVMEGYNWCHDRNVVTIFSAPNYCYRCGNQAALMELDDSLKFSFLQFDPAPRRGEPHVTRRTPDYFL
UniProt Q24311: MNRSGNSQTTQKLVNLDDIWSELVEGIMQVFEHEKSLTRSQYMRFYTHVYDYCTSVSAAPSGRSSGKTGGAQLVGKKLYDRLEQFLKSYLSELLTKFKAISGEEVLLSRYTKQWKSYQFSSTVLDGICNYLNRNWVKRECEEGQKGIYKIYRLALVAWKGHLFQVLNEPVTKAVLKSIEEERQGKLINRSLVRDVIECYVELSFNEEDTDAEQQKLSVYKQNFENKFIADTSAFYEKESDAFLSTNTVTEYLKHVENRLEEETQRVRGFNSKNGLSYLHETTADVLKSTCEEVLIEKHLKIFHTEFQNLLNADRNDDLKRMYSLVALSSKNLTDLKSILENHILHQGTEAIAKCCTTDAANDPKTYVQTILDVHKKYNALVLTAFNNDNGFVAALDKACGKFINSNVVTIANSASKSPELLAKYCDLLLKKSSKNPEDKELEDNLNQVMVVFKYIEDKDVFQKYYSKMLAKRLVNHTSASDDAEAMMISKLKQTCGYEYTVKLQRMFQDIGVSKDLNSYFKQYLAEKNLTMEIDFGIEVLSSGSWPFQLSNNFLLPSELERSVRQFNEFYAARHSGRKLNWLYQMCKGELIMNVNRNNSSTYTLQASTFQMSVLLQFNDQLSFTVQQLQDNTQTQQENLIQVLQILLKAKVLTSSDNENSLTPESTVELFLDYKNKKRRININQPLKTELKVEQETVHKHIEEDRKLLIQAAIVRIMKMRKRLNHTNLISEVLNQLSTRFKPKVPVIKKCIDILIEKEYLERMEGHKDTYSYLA

What was measured:
Experiment in all cases: affinity purification with mass spectrometry; GFP-tagged SCF component immunoprecipitated from lysate of dissected Drosophila ovaries with GFP-MA trap beads (anti-GFP nanobody), 30 min at 4°C, 20 mM Tris-HCl pH 7.5, 50 mM NaCl, 5 mM EGTA, 0.5% Triton X-100; label-free quantitative mass spectrometry against ovaries expressing GFP alone
[1] = target: SkpA fused with GFP (GFP-SkpA) (Drosophila) (UniProt O77430)
[2] = target: GFP-CG6758/Fbxo42 (Drosophila) (UniProt Q5BHY0)
[3] = target: GFP-CG6758/Fbxo42 (Drosophila) (UniProt Q5BHY0); remark: listed apart in the source
[4] = target: SkpA fused with GFP (GFP-SkpA) (Drosophila) (UniProt O77430); remark: listed apart in the source

**Q.** How did the binding [1] turn out when CG6758/Fbxo42 (from UniProt Q5BHY0) was run?
**A.** Its binding is “binds”.

**Q.** With 14-3-3ε (from UniProt P92177 1-262) as the molecule, how does the binding [2] read?
**A.** Its binding is “binds”.

**Q.** How did the binding [2] turn out when “catalytic (C) subunit of protein phosphatase 2A (PP2A) (from UniProt P23696 1-309)” was run?
**A.** The binding was “binds”.

**Q.** Which binding [1] does the source give for Cul1 (from UniProt Q24311 1-774) here?
**A.** Its binding is “binds”.

B1: 14-3-3ζ (protein, UniProt P29310 1-248)
chain: MSTVDKEELVQKAKLAEQSERYDDMAQAMKSVTETGVELSNEERNLLSVAYKNVVGARRSSWRVISSIEQKTEASARKQQLAREYRERVEKELREICYEVLGLLDKYLIPKASNPESKVFYLKMKGDYYRYLAEVATGDARNTVVDDSQTAYQDAFDISKGKMQPTHPIRLGLALNFSVFYYEILNSPDKACQLAKQAFDDAIAELDTLNEDSYKDSTLIMQLLRDNLTLWTSDTQGDEAEPQEGGDN
**Q.** How did the binding [3] turn out when B1 was run?
**A.** The binding was “binds”.

B2: Slmb/βTrcp (protein, UniProt Q9VDE3 1-510)
chain: MMKMETDKIMDETNSNAQAFTTTMLYDPVRKKDSSPTYQTERELCFQYFTQWSESGQVDFVEHLLSRMCHYQHGQINAYLKPMLQRDFITLLPIKGLDHIAENILSYLDAESLKSSELVCKEWLRVISEGMLWKKLIERKVRTDSLWRGLAERRNWMQYLFKPRPGQTQRPHSFHRELFPKIMNDIDSIENNWRTGRHMLRRINCRSENSKGVYCLQYDDGKIVSGLRDNTIKIWDRTDLQCVKTLMGHTGSVLCLQYDDKVIISGSSDSTVRVWDVNTGEMVNTLIHHCEAVLHLRFNNGMMVTCSKDRSIAVWDMTSPSEITLRRVLVGHRAAVNVVDFDEKYIVSASGDRTIKVWSTSSCEFVRTLNGHKRGIACLQYRDRLVVSGSSDNSIRLWDIECGACLRVLEGHEELVRCIRFDTKRIVSGAYDGKIKVWDLVAALDPRAASNTLCLNTLVEHTGRVFRLQFDEFQIVSSSHDDTILIWDFLNFTPNENKTGRTPSPALMEH
**Q.** B2 was tested. Which binding [4] did it give?
**A.** Its binding is “binds”.

B3: structural (A) subunit of protein phosphatase 2A (PP2A) (protein, UniProt P36179 1-591)
chain: MAASDKSVDDSLYPIAVLIDELKNEDVQLRLNSIKKLSTIALALGEERTRSELIPFLTETIYDEDEVLLALADQLGNFTSLVGGPEFAMYLIPPLESLATVEETVVRDKAVESLRTVAAEHSAQDLEIHVVPTLQRLVSGDWFTSRTSACGLFSVCYPRVTQPVKAELRANFRKLCQDETPMVRRAAANKLGEFAKVVETEYLKSDLIPNFVQLAQDDQDSVRLLAVEACVSIAQLLPQDDVEHLVLPTLRQCASDSSWRVRYMVAEKFVDLQKAVGPEITRVDLVPAFQYLLKDAEAEVRAAVATKVKDFCANLDKVNQVQIILSSILPYVRDLVSDPNPHVKSALASVIMGLSPMLGAYQTVEQLLPLFLIQLKDECPEVRLNIISNLDCVNDVIGIQQLSQSLLPAIVELAEDSKWRVRLAIIEYMPALAGQLGQEFFDQKLRGLCMGWLNDHVYAIREAATLNMKKLVEQFGAPWAEQAIIPMILVMSRNKNYLHRMTCLFCLNVLAEVCGTDITTKLLLPTVLLLAADPVANVRFNVAKTLQKISPFLEASVIDAQVKPTLDKLNTDTDVDVKHFAAQAIAGIAAA
**Q.** With B3 as the molecule, how does the binding [3] read?
**A.** The binding was “binds”.
